Experimental findings from doi:10.1101/397851 are described below.

Amino acid sequences for entries named in this document (tags omitted).
UniProt Q924A0: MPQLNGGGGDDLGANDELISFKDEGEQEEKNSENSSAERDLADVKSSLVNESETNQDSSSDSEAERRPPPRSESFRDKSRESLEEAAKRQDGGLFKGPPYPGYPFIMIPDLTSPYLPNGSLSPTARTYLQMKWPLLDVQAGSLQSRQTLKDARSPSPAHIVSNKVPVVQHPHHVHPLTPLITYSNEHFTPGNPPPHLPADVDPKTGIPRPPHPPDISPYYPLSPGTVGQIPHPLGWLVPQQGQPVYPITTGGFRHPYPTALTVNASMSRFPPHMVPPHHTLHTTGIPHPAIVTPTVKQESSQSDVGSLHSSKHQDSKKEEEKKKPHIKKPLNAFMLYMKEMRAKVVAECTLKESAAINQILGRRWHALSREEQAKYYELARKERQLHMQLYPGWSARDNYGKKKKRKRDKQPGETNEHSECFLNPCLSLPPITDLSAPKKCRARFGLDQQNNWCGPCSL
UniProt Q61169: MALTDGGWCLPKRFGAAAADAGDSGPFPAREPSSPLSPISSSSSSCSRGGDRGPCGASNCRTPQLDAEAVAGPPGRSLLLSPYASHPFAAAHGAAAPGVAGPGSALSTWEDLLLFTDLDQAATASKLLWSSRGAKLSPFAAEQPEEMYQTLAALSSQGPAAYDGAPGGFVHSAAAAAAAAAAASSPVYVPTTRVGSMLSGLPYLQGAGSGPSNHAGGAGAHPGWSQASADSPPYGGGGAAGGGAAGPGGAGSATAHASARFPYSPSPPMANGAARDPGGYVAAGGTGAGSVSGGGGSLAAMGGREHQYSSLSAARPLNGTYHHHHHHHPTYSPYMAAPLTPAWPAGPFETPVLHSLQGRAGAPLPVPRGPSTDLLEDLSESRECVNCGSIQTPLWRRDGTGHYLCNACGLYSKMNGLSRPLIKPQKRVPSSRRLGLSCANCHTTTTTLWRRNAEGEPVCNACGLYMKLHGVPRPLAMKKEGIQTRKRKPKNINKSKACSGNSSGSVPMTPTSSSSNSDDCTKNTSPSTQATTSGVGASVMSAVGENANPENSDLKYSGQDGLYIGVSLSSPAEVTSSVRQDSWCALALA

This assay has as its target TCF7L2 (mouse (endogenous in primary aortic VSMC)) (UniProt Q924A0). Nature of the assay: co-IP.

No constants are given. Whether binding was seen depends on the method and setting. In cells and extracts the contact can be indirect. Some binding calls cover weakened binding; strength is not graded here.

Take GATA6 (from UniProt Q61169 1-589): the binding entry is given as “binds”.
